Reference: PubChem BioAssay AID1053208 (Peter MacCallum Cancer Centre, 2014)

Assay: 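Synthetic lethal interactions between gene loss and doxorubicin in osteosarcoma cells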 (primary screen)
Cells: mouse osteosarcoma cells, early-passage culture from an engineered mouse model of fibroblastic bone tumour
Reagents: siRNA pool against mouse genes, 40 nM
Duration: about 120 h (48 h before drug, then 72 h with drug)
Challenge: doxorubicin 100 nM for 72 h, roughly 30-40% inhibitory dose
Detection: 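Luminescent ATP signal taken as viability with or without 100 nM doxorubicin for 72 h; mean of two wells set against non-targeting siRNA and turned into robust z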
Scale: viability z-score with doxorubicin: higher = more viable cells under doxorubicin; viability z-score without drug: higher = more viable cells with knock-down alone
Rule for the call: 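Called active if knock-down leaves viability unchanged without drug (z within -2 to 2) but lowers it with doxorubicin (z at or under -2)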
In all, the deposit lists about 17,000 reagents; shown is a random part of them. 788 of them (4.7%) count as active. 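Calls rest on z-score classes alone; an extra cut-off of viability at most 70% of control was not applied to them.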 Entries without a mark were called inactive. Not all columns of the deposit are shown.

gene | PubChem SID | combined z-score class | viability z-score with doxorubicin | viability z-score without drug
Eng | SID152323040 | no change with or without drug | -0.11 | 0.67
Lrrc46 | SID152340260 | low cell count with doxorubicin only (active) | -2.36 | 0.51
Zfp109 | SID152310307 | no change with or without drug | -0.22 | 1.85
Raver1 | SID152269966 | high cell count with and without drug | 2.81 | 2.7
Tctn2 | SID152320321 | no change with or without drug | 0.79 | -1.52
Ppp2r3c | SID152294407 | no change with or without drug | -1.01 | 0.84
Cggbp1 | SID152336329 | low cell count with doxorubicin only (active) | -2.7 | -1.01
Adam23 | SID152285075 | no change with or without drug | 0.34 | 0.17
Adam23 | SID152295163 | low cell count with doxorubicin only (active) | -3.04 | 0
Ear6 | SID152338605 | no change with or without drug | -0.9 | 1.18
Frs2 | SID152283121 | low cell count with doxorubicin only (active) | -3.04 | -1.18
Or7g35 | SID152332551 | no change with or without drug | -0.56 | 0.17

The list goes on; the last 4 above are carried over.
gene | PubChem SID | combined z-score class | viability z-score with doxorubicin | viability z-score without drug
Adam23 | SID152295163 | low cell count with doxorubicin only (active) | -3.04 | 0
Ear6 | SID152338605 | no change with or without drug | -0.9 | 1.18
Frs2 | SID152283121 | low cell count with doxorubicin only (active) | -3.04 | -1.18
Or7g35 | SID152332551 | no change with or without drug | -0.56 | 0.17
Zfp319 | SID152301671 | no change with or without drug | 0.45 | 1.35
Cyth2 | SID152275208 | no change with or without drug | -0.45 | -0.17
Lancl2 | SID152263565 | no change with or without drug | -0.9 | 0.17
Vmn1r193 | SID152287868 | no change with or without drug | -1.57 | -0.34
Ifna11 | SID152264605 | high cell count with doxorubicin only | 2.36 | 1.85
Or8a1 | SID152329578 | no change with or without drug | -1.57 | -1.85
Abcb11 | SID152287680 | no change with or without drug | 0 | 0.84
Bcl2a1d | SID152273673 | high cell count without drug only | 0.9 | 2.19
Noxo1 | SID152262183 | no change with or without drug | -0.67 | -1.35
Grn | SID152297262 | low cell count with doxorubicin only (active) | -2.02 | -0.84
Mgat5 | SID152301641 | low cell count without drug only | -0.9 | -2.36
Sprr3 | SID152279589 | no change with or without drug | 0.67 | 0.17
Rdh7 | SID152264252 | no change with or without drug | -0.22 | -1.18
Rnpc3 | SID152269997 | no change with or without drug | 0.79 | 0.51
Cdh8 | SID152270313 | no change with or without drug | 0.11 | 1.52
Dpm2 | SID152331705 | no change with or without drug | 0.45 | 1.18
Gtf2a1l | SID152265955 | no change with or without drug | 0.56 | 0
Nemp2 | SID152269938 | no change with or without drug | 0.11 | 0.51
Rogdi | SID152308777 | no change with or without drug | 1.57 | 1.01
H2ac18 | SID152282715 | high cell count with and without drug | 2.36 | 2.53
Cd33 | SID152334166 | no change with or without drug | 0.9 | 1.69
Rnps1 | SID152336796 | low cell count with doxorubicin only (active) | -3.71 | -1.85
